The record followed here is article PMC10163288.

This is one part of the list.

The chains are these.
B1: il2ra_site1_2b5i_sap_9_mot_HHH_b1_00095_000000042_0001_1_14_H_._HHH_b1_08235_0001_0000300017_0000001_0_0001_af2pred_dldesign_0_af2pred (protein)
chain: SSSSSMSAKEYIDAVLEEAAKLEDPLERRRLLLLALRYAKKKNEPELEKEIEARLKELESSSSSS
B2: il2ra_site1_3nfp_normal_mot_40e86e4e32a25ee6cbb7392bdf050625_0001_1_000000004_0001_1_15_H_._98c316dcd33a4a4659f1bb01e8c35f85_0001_0001_0000300030_0000001_0_af2p … (protein)
chain: SELLERLIREAYERGNVEEYARHLLETLEKLLGDPEEAKEELERLLEEALGDPELSKELIERVEK
B3: il2ra_site1_1z92_normal_mot_b1fbee8209167eaadba3689d49187f1a_0001_1_af2_000000018_0001_16_31_H_._ca9eff2b9947dfa32b90907aa01746fa_0001_af2_0001_0000200014_00000 … (protein)
chain: DESELRDLRRAEELGIPPEQAVRAVIRAIARIDRVPPEEAAEILLQILEKLGDPELAEIAEELTP
B4: il2ra_site2_3nfp_sap_20_mot_ems_3hM_1278_af2_000000151_0001_43_60_H_._HHH_b1_03616_0001_0000200017_0000001_0_0001 (protein)
chain: SSSSSSDEEEVEELLEEAKKIEDERERLEVFAEAVQIAFESRNSELFFRIAEVAYELLSSSSSSS
B5: il2ra_site1_3nfp_sap_16_mot_HHH_b1_03236_000000173_0001_17_33_H_._HHH_b1_01532_0001_0000300008_0000001_0_0001_af2pred_0001_af2pred (protein)
chain: SSSSDVHEEARRLSRRIKELIHEGDHEEARELLEELEELARELGDPIAKILVERLERRIDSSSSS
B6: il2ra_site2_2erj_normal_mot_HHH_b2_00789_000000198_0001_40_54_H_._HHH_b1_02336_0001_0000200015_0000001_0 (protein)
chain: SSSSTESAEEALELAEEEAEELLEEGDEERARSLLRLALRYLKLSGDEEILERLEEFLRRISSSS
B7: il2ra_site2_3nfp_normal_mot_HHH_b1_03376_000000004_0001_41_55_H_._HHH_b1_01973_0001_0000500054_0000001_0 (protein)
chain: SSSSDEEVRELLEEARRLLEEGNPEEARKLVARAAHLAFQAGDSRLFFEVAELLFEIYQLGSSSS
B8: il2ra_site1_3nfp_normal_mot_HHH_b1_07560_af2_000000209_0001_40_57_H_._HHH_b1_08318_0001_0000100001_0000001_0_af2pred_0001_af2pred_1_swapped (protein)
chain: SSSSSDIAKEATERAKEHAQEAYENGDPEAAKKSLEKLERDLKAANNPELLREVEELLEELSSSS
B9: il2ra_site1_3nfp_normal_mot_HHH_b1_03481_000000088_0001_17_33_H_._8e6453a357ce3577210587ee391b8721_0001_0001_0000300022_0000001_0 (protein)
chain: GPKIVERLAEQLGVPPEVIELIKRVLEKLEKHPENRELHELLNEIAEALARGDIELVEELVEEAH
B10: il2ra_site2_2erj_sap_32_mot_104c758fc23488854646035ccb2100c6_0001_000000266_0001_15_30_H_._HHH_b2_03308_0001_0000700027_0000001_0_0001_af2pred_0001_1_af2pred_sw … (protein)
chain: SSSSSDEEEAREVVERLVEEFGLSEADKRLLELFAEFALEAGLSEEEIEKLLERIARLAGSSSSS
B11: il2ra_site2_3nfp_normal_mot_HHH_b1_05437_000000005_0001_40_57_H_._HHH_b2_01829_0001_0000100016_0000001_0 (protein)
chain: SSSSSDEEEEEVKELLEEAKRIEDEEEARRLLAEASQIAYENRDFELFFLVAEVLFKLEQSSSSS
B12: il2ra_site1_2b5i_normal_mot_HHH_b2_07442_af2_000000069_0001_1_16_H_._HHH_b1_01339_af2_0001_0000200021_0000001_0_af2pred_0001_af2pred (protein)
chain: SSSSDEEFERVLELYREASELFRQGNKEEAQELLEEALRLAEEAGDPNAKRDVRFMLELLNSSSS
B13: il2ra_site2_3nfp_sap_23_mot_HHH_b1_04032_000000208_0001_43_56_H_._HHH_b2_04216_0001_0000100001_0000001_0_0001 (protein)
chain: SSSSDKAEEYLRAAIAAAERAIEQGDPEVARSILEIAKLAAESRNDEELLERIQELLEEISSSSS
B14: il2ra_site1_3nfp_sap_14_mot_119b7766384adbe86006a62bce89dba1_0001_af2_000000052_0001_18_32_H_._HHH_b2_03369_0001_0000100001_0000001_0_0001_af2pred_0001_1_af2pre … (protein)
chain: SSDEYFERQVKRVQELAEEKNDEEVRELAEEALELFERAREEKDSEKAHEAIKIVARLQLLVSSS
B15: il2ra_site1_3nfp_normal_mot_HHH_b1_07180_af2_000000260_0001_1_19_H_._HHH_b1_03230_af2_0001_0000300012_0000001_1_af2pred_0001_af2pred_1 (protein)
chain: SSSSDEEERLLEEAQEELKRLLEEGDPKEASKLAEEVIRELRKLGNRELVEELLEFALRSSSSSS
B16: il2ra_site2_3nfp_sap_17_mot_HHH_b1_05627_af2_000000038_0001_43_56_H_._HHH_b1_00869_af2_0001_0000100004_0000001_0_0001 (protein)
chain: SSSSSEAEEYVKAALALLRRAIEEGDEEAAEKLIEMLRLAIESQENPELREELEELEKALDSSSS
B17: il2ra_site2_2erj_sap_18_mot_HHH_b1_02757_000000121_0001_41_57_H_._HHH_b1_07850_0001_0000400009_0000001_0_0001 (protein)
chain: SSSSDVEEEVRRLLEEAEEAYEEGDLHEVYRLLNEALRLASENQDPELIELVHKVAEEMSSSSSS
B18: il2ra_site2_2erj_normal_mot_2e60acbd11533cd3bad2fa8ba2aa37e0_0001_af2_000000288_0001_35_49_H_._HHH_b1_06043_0001_0000600028_0000001_0 (protein)
chain: SSSSDSEEVFEEAREELEELLKEGNIEEAFKVLVEAAMRLLRLGNFELAERLLEIAQELASSSSS

The target in the experiment is il2ra, P01589. As to the kind of experiment: yeast display titration.
On to B1, for which the “apparent Kd” value is “inactive: no binding seen”. To B2 belongs “inactive: no binding seen”; to B3, “inactive: no binding seen”; to B4, “inactive: no binding seen”. For the molecule B5, the “apparent Kd” value was “inactive: no binding seen”. The entry for B6 is “inactive: no binding seen”; for B7 it is “inactive: no binding seen”; for B8 it is “inactive: no binding seen”.

For B9, the “apparent Kd” value is “inactive: no binding seen”. The entry for B10 is “inactive: no binding seen”; for B11 it is “inactive: no binding seen”; for B12 it is “inactive: no binding seen”. The entry for B13 is “inactive: no binding seen”; for B14 it is “inactive: no binding seen”. As to B15, the “apparent Kd” value was “inactive: no binding seen”. To B16 belongs “inactive: no binding seen”. The entry for B17 is “inactive: no binding seen”. The entry for B18 is “inactive: no binding seen”.
